No constants are given. Whether binding was seen depends on the method and setting.
Assays:
Assay in all cases: SPR; SPR imaging (SPRi, PlexArray HT); peptides immobilised through an N-terminal cysteine on a bare gold chip, blocked with 5% nonfat milk; HER2 or HSA in PBST flowed at 0.625 to 20 μg/mL; KD from fitting association-dissociation curves; both purified
[1] = target: T1, peptide 4665 (pertuzumab fragment Glu46 to Lys65) with N-terminal cysteine, for SPRi
T1 sequence (peptide): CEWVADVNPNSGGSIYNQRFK

The chains behind the UniProt entries cited, without tags or fusion partners. Residues count along the entry.
UniProt P02768, residues 25-609: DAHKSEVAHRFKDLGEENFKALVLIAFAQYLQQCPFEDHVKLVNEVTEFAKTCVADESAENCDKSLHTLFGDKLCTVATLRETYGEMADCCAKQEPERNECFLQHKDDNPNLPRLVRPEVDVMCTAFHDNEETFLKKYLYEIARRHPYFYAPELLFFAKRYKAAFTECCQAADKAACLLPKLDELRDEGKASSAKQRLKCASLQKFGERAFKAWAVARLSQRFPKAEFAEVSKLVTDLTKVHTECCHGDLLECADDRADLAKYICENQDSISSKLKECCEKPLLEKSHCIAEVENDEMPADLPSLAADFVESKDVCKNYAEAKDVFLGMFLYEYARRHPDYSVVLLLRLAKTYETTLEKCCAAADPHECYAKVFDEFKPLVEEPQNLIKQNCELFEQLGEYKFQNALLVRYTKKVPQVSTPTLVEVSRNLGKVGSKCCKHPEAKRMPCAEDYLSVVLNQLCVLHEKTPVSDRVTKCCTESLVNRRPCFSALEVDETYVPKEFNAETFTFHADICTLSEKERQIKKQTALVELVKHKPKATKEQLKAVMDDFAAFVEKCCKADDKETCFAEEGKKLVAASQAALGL

[2] = target: T2, peptide 55V (4665 with Ser55 to Val) with N-terminal cysteine, for SPRi
T2 sequence (peptide): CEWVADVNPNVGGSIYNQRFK

[3] = target: T3, peptide 55V63Y with N-terminal cysteine, for SPRi
T3 sequence (peptide): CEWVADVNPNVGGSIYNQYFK

[4] = target: T4, peptide 58F (4665 with Ser58 to Phe) with N-terminal cysteine, for SPRi
T4 sequence (peptide): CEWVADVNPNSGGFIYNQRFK

[5] = target: T5, peptide 58F63Y with N-terminal cysteine, for SPRi
T5 sequence (peptide): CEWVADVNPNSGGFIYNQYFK

[6] = target: T6, peptide 63Y (4665 with Arg63 to Tyr) with N-terminal cysteine, for SPRi
T6 sequence (peptide): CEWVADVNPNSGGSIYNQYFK

With “Human serum albumin (HSA) protein (from UniProt P02768 25-609)” the binding [1] was “no binding (tested: 0.625 to 20 μg/mL HSA)”, the binding [2] was “no binding (tested: 0.625 to 20 μg/mL HSA)” and the binding [3] was “no binding (tested: 0.625 to 20 μg/mL HSA)”. For the same substance, the binding [4] was “no binding (tested: 0.625 to 20 μg/mL HSA)”, the binding [5] was “no binding (tested: 0.625 to 20 μg/mL HSA)” and the binding [6] was “no binding (tested: 0.625 to 20 μg/mL HSA)”.
